Laboratory results taken from paper PMC13257416.
Results are given in words; binding and its absence hold for the method and conditions named. Binding seen in cells or lysates may run through a third protein. Some binding calls cover weakened binding; strength is not graded here. For some of these results: Where a sequence is shown, tags or fusion partners need not be part of it.

Protein sequences, listed by entry. Tags and fused reporters are not part of them.
UniProt P51149: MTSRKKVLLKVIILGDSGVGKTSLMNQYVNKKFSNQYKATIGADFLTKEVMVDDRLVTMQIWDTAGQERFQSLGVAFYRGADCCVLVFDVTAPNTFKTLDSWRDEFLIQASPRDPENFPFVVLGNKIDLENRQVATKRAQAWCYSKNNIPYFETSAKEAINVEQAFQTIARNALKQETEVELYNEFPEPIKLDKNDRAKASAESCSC

T1: GST-AnxA6 fusion protein (UniProt P08133)
T1 sequence: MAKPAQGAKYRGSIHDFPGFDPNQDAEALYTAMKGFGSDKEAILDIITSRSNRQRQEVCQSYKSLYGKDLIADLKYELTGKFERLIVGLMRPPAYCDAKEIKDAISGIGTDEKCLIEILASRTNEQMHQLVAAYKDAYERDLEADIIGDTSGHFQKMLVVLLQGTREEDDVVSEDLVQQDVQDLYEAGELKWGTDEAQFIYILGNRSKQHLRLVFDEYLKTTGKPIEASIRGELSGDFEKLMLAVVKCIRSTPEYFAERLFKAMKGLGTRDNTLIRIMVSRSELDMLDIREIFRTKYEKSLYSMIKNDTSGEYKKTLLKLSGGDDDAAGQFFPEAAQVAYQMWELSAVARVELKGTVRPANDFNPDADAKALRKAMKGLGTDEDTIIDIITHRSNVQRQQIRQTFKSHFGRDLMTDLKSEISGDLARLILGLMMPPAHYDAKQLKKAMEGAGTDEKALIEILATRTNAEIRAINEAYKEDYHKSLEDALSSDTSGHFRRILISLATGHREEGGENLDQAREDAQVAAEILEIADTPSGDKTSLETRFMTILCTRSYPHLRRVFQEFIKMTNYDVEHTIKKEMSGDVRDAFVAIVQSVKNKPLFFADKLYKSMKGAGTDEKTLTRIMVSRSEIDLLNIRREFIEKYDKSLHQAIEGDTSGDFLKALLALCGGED

T2: Annexin A6 (human (endogenous in TNBC cell lines)) (UniProt P08133)
T2 sequence: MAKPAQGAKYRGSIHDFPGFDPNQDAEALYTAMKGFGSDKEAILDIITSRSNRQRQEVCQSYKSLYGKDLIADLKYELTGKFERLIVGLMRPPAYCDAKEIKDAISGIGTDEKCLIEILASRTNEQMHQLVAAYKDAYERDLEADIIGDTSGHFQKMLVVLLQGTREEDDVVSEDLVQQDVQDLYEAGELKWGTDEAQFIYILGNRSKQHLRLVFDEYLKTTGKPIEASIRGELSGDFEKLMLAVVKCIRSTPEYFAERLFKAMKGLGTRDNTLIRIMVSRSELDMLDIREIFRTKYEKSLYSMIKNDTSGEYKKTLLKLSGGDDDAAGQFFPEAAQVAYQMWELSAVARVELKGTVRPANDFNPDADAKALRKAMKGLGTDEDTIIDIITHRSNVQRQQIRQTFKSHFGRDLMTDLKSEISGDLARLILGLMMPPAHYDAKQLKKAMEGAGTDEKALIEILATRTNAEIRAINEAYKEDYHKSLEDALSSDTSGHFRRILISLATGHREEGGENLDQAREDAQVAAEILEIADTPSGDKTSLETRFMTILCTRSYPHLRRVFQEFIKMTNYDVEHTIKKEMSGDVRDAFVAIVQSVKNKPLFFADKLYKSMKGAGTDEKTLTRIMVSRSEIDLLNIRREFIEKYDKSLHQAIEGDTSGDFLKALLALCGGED

T3: Flag-tagged Annexin A6 (UniProt P08133)
T3 sequence: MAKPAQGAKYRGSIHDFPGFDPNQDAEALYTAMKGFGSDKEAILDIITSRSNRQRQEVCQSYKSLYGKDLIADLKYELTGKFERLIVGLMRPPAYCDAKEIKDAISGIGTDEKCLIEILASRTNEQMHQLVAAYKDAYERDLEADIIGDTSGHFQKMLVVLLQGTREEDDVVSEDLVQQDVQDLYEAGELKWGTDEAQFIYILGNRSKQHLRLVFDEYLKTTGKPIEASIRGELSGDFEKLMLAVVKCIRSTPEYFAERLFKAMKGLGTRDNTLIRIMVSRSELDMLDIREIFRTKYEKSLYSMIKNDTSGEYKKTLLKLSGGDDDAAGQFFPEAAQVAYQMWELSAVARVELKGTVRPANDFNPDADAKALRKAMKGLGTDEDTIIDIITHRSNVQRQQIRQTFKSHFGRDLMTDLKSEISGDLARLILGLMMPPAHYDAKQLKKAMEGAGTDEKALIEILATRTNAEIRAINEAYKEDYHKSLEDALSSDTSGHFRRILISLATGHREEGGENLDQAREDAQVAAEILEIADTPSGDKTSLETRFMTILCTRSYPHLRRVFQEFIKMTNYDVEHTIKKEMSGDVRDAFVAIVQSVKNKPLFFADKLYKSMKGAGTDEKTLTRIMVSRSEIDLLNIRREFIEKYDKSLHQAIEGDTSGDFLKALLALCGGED


Legend:
GST-AnxA6 fusion protein = biological target: T1, GST-AnxA6 fusion protein; assay: pull-down; 2 µg of GST-AnxA6 immobilized to glutathione beads, incubated with 500 µg of whole cell extract from MDA-468 cells in lysis buffer with or without 1 mM Ca2+; Western blotting; only the target purified
[1] = biological target: T2, Annexin A6 (human (endogenous in TNBC cell lines)); assay: proximity ligation; Duolink In Situ Red kit, mouse anti-AnxA6 and rabbit anti-SNAP23 EPR8538 on cells in chamber slides; confocal microscopy; cell line not stated
Flag-tagged Annexin A6 [2] = biological target: T3, Flag-tagged Annexin A6; assay: co-IP; anti-Flag-M2 antibody on whole cell lysates (RIPA buffer) of MDA-468 cells expressing Flag-tagged AnxA6; cells treated with or without the crosslinker DSP; Western blotting
Flag-tagged Annexin A6 [3] = biological target: T3, Flag-tagged Annexin A6; assay: co-IP; anti-AnxA6 antibody on lysates (RIPA buffer) of empty vector and Flag-AnxA6 transfected MDA-468 cells; with or without the crosslinker DSP; Western blotting

binding (GST-AnxA6 fusion protein)	binding [1]	binding (Flag-tagged Annexin A6 [2])	binding (Flag-tagged Annexin A6 [3])	Molecule
binds				Rab7 (from UniProt P51149 1-207)
binds				EGFR (from UniProt P00533 25-1210) (receptor)
binds	binds	binds	binds	SNAP23 (protein, UniProt O00161 1-211) MDNLSSEEIQQRAHQITDESLESTRRILGLAIESQDAGIKTITMLDEQKEQLNRIEEGLDQINKDMRETEKTLTELNKCCGLCVCPCNRTKNFESGKAYKTTWGDGGENSPCNVVSKQPGPVTNGQLQQPTTGAASGGYIKRITNDAREDEMEENLTQVGSILGNLKDMALNIGNEIDAQNPQIKRITDKADTNRDRIDIANARAKKLIDS
binds				flotillin (protein, UniProt O75955 1-427) MFFTCGPNEAMVVSGFCRSPPVMVAGGRVFVLPCIQQIQRISLNTLTLNVKSEKVYTRHGVPISVTGIAQVKIQGQNKEMLAAACQMFLGKTEAEIAHIALETLEGHQRAIMAHMTVEEIYKDRQKFSEQVFKVASSDLVNMGISVVSYTLKDIHDDQDYLHSLGKARTAQVQKDARIGEAEAKRDAGIREAKAKQEKVSAQYLSEIEMAKAQRDYELKKAAYDIEVNTRRAQADLAYQLQVAKTKQQIEEQRVQVQVVERAQQVAVQEQEIARREKELEARVRKPAEAERYKLERLAEAEKSQLIMQAEAEAASVRMRGEAEAFAIGARARAEAEQMAKKAEAFQLYQEAAQLDMLLEKLPQVAEEISGPLTSANKITLVSSGSGTMGAAKVTGEVLDILTRLPESVERLTGVSISQVNHKPLRTA
